The test has as its target T1, TRAF6 (full-length), bait of the in vitro virus selection (UniProt P70196).
T1 sequence: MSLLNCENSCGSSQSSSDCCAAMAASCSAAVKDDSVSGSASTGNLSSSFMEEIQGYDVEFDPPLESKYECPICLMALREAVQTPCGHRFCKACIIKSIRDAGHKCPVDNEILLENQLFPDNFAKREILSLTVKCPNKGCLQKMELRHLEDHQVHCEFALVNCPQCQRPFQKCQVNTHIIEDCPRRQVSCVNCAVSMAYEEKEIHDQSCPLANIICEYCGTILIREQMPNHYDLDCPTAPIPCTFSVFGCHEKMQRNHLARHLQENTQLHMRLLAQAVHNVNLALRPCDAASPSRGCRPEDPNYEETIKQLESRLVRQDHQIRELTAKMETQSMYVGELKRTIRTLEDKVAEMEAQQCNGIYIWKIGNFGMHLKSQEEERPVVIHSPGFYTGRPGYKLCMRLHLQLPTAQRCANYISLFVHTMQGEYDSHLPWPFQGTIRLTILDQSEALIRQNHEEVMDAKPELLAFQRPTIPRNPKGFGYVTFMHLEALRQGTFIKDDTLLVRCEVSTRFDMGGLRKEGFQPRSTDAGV
Kind of test: in vitro virus (IVV) selection; mRNA templates of bait (full-length TRAF6) and prey (mouse fetal thymus cDNA library) cotranslated in wheat germ extract for 1 h at 26°C; four rounds of selection; mock selection without bait as negative control.

Results are given in words; binding and its absence hold for the method and conditions named. Binding calls can cover weak binding; strength is not graded here.

These results are taken from publication PMC4006813.

Turning to “RNA binding motif protein 39, peptide selected by IVV (mouse) (domain or fragment)”, the binding result was “binds”.
Regarding “WAS protein homology region 2 domain containing 1, peptide selected by IVV (mouse) (domain or fragment)”, the binding entry is reported as “binds”.
